Source: PubChem BioAssay AID1671190 (National Center for Advancing Translational Sciences (NCATS), 2021)
Where “and” joins values, the source holds several entries; their conditions need not be identical. Equal values may be shown once. Screen size: about 580,000 compounds; about 6,100 (1.1%) were called active. Inconclusive results, whose numbers are uncertain, are shown with a selection of clear calls. The call rests on the fitted dose curve; in most records, active means well fitted inhibition curve with a large enough effect; inconclusive means small, poorly fitted or top-dose-only effect, or another doubt; inactive means no such curve, though single readings can be large or run the other way. A potency beside an inconclusive call is a rough fit, not a confirmed value.

The chains behind the UniProt entries cited, without tags or fusion partners. Where a name states a change or a piece, a line headed by the entry shows the natural chain unless it says otherwise.
UniProt P18054: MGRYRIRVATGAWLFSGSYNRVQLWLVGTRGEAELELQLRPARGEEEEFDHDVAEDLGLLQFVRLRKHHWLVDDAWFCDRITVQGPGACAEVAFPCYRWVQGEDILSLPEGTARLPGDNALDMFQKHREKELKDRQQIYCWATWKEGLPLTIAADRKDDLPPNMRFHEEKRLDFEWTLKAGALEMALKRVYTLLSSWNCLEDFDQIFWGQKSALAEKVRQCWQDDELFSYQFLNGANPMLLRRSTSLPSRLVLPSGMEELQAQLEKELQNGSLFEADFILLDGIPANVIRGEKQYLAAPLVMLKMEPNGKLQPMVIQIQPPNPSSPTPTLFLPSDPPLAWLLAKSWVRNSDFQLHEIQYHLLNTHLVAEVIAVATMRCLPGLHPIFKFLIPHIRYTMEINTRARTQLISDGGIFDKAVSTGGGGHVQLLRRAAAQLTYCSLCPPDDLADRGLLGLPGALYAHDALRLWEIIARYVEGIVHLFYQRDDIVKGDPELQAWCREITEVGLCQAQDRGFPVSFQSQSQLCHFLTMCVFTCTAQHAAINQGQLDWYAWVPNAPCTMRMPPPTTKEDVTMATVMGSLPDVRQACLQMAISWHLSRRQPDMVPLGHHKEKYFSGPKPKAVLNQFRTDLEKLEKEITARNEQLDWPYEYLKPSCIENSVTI

Molecular target: Polyunsaturated fatty acid lipoxygenase ALOX12 (Homo sapiens) (UniProt P18054)
Experiment: Primary qHTS assay for inhibitors of human arachidonate 12S-lipoxygenase (ALOX12): Round 2
Settings: purified 12hLO, xylenol orange hydroperoxide absorbance; activity change, negative = inhibition: at 108 µM (top of the series) unless noted
Summary of the method: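 Hydroperoxide product was detected by ferrous iron/xylenol orange as the 573 to 405 nm absorbance ratio. Arachidonic acid at 40 uM (final) was turned over for 30 min at room temperature by 150 nM human 12hLO, pH 7.0 Hepes buffer, after 15 min compound preincubation.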
On the % scale 0 is the no-effect control and ±100 the full control effect; potency means the concentration at half of the fitted maximal effect.

| SMILES | Potency | activity change, negative = inhibition |
| --- | --- | --- |
| Cc1ccc(/C=N/Nc2ccnc3cc(Cl)ccc23)c(C)c1 | inconclusive: 44.7 µM [inhibitor, partial curve, poor fit] | – |
| Cc1ccccc1C(=O)N1C(C(=O)NC2CC2)COC12CCN(C(=O)c1cccc(Cl)c1)CC2 (centres undefined) | – | inactive: 31.4% |
| COC(=O)c1c(NC(=O)COc2cccc(C(F)(F)F)c2)sc2c1CCCC2 | – | inactive: -21.4% |
| CCOC(=O)N1CCN(S(=O)(=O)c2ccc(C(=O)N(CCCN(C)C)c3nc4ccc(Cl)cc4s3)cc2)CC1 | inconclusive: 39.8 µM [inhibitor, partial curve] | – |
| C=CC[C@@H]1C=C(C)C[C@H](C)C[C@H](OC)[C@H]2O[C@@](O)(C(=O)C(=O)N3CCCC[C@H]3C(=O)O[C@H](C(C)=C[C@@H]3CC[C@H](O)[C@H](OC)C3)[C@@H](C)[C@@H](O)CC1=O)[C@@H](C)C[C@@H]2OC | inconclusive: 0.172 µM [inhibitor, full curve] | – |
| Cc1ccccc1C(=O)N1CCC(C(=O)N2CCN(c3ncccn3)CC2)CC1 | – | inactive: -41.5% |
| CC(On1nnc2ccc(Cl)cc21)C(=O)Nc1ccccc1Cl (centres undefined) | – | inactive: 4.19% |
| COc1ccc2c(c1)C(C)=CC(C)(C)N2C(=O)CNCc1ccc2c(c1)OCO2 | inconclusive: 0.282 µM [inhibitor, full curve, poor fit] | – |
| O=C(O)c1cc(N/N=C/c2ccc(OCc3ccccc3)cc2)ccc1Cl | inconclusive: 50.1 µM [inhibitor, partial curve, poor fit] | – |
| O=C1N/C(=C/c2cccs2)C(=O)N1Cc1ccc(Br)cc1 | – | inactive: -9.88% |
| Cc1c(Cl)cccc1-c1ccc(/C=C(\C#N)c2nc3ccccc3[nH]2)o1 | inconclusive: 112 µM [inhibitor, partial curve, poor fit] and inconclusive: 79.4 µM [inhibitor, partial curve, poor fit] | – |
| C=CCOC(=O)C1=C(C)NC2(O)c3ccccc3C(=O)C12O (centres undefined) | inconclusive: 63.1 µM [inhibitor, partial curve, poor fit] | – |
| COCCNC(=O)c1ccc2c(c1)S(=O)(=O)c1cc(Cl)ccc1C2=O | inconclusive: 15.8 µM [inhibitor, partial curve, poor fit] | – |
| O=C1NCCCCCCN(S(=O)(=O)c2ccc3c(c2)CCC3)[C@H]2CCC[C@@H]12 | – | inactive: -9.65% |
| COC(=O)C(=Nc1ccccc1)/C(C(=O)C(=O)N(C)c1ccccc1)=C(\O)c1ccccc1 | active: 12.6 µM | – |
| Oc1ccc(CCNc2c3ccccc3nc3ccccc23)cc1O | inconclusive: 44.7 µM [inhibitor, partial curve] | – |
| Cc1cc(O)ccc1-c1cnc2ccccc2n1 | inconclusive: 25.1 µM [inhibitor, partial curve, poor fit] | – |
| CC(/C=C/c1ccccc1)=N\NC(N)=S | active: 11.2 µM | – |
| CCCCn1c(N)c(N(CC(C)C)C(=O)c2oc3ccc(Br)cc3c2C)c(=O)[nH]c1=O | inconclusive: 50.1 µM [inhibitor, partial curve, poor fit] | – |
| Nc1nonc1C(=O)NCCNC(=O)c1cccc(Cl)c1 | inconclusive: 39.8 µM [inhibitor, full curve, poor fit] | – |
| O=C(CCCOC(=O)c1cccnc1Cl)c1ccc(Br)cc1 | inconclusive: 141 µM [inhibitor, single point] | – |
| CCN(CC)c1ccc(NS(=O)(=O)c2cc(-c3cc(C)no3)ccc2C)c(C)c1 | inconclusive: 56.2 µM [inhibitor, partial curve, poor fit] | – |

| SMILES | Potency | activity change, negative = inhibition |
| --- | --- | --- |
| COC(=O)c1cccc(NC(=S)N[C@@H]2C=C[C@@H](c3c(C)nn(-c4ccc(F)cc4)c3C)C2)c1 | inconclusive: 89.1 µM [inhibitor, single point] | – |
| C=CCc1cc(C)ccc1OCCNC(C)C | inconclusive: 2.82 µM [inhibitor, full curve] | – |
| COc1ccccc1N1CCN(c2nc(C)nc3c2oc2ccccc23)CC1 | – | inactive: -13.6% |
| Cc1cccc(NC(=S)NC(NC(=O)c2ccco2)C(Cl)(Cl)Cl)c1 (centres undefined) | inconclusive: 25.1 µM [inhibitor, single point] | – |
| Cc1ccc(CNC(=O)C2CCCN(c3ncnc4onc(-c5ccc(F)cc5)c34)C2)cc1 (centres undefined) | inconclusive: 100 µM [inhibitor, single point] | – |
| Cc1ccc(NC(=S)N/N=C/c2c(C)nn(-c3ccccc3)c2N2CCCC2)cc1 | inconclusive: 44.7 µM [inhibitor, partial curve, poor fit] | – |
| COC(=O)c1ccc2nc(-c3ccc(Cl)cc3)c(Cc3cccc(F)c3)n2c1 | active: 44.7 µM | – |
| Cc1ccc(C2=CSC3=NCCN23)c(C)c1 | inconclusive: 50.1 µM [inhibitor, single point] | – |
| CC(=O)N1CCC(N2CCC[C@H]2c2nc(-c3ccc(N4CCC(C(N)=O)CC4)nc3)no2)CC1 | inconclusive: 100 µM [inhibitor, partial curve, poor fit] | – |
| CCNC(=S)N1CCN(S(=O)(=O)c2cccc(C(F)(F)F)c2)CC1 | inconclusive: 70.8 µM [inhibitor, partial curve, poor fit] | – |
| N#CCCN(C(=O)COc1ncnc2sc3c(c12)CCC3)c1ccccc1 | inconclusive: 50.1 µM [inhibitor, partial curve, poor fit] | – |
| CCOC(=O)c1cnn(-c2ncnc3sc(C)c(C)c23)c1N | – | inactive: 0% |
| COc1ccccc1C(=O)NC(=S)Nc1ccc(N2CCN(C(=O)c3ccco3)CC2)cc1 | inconclusive: 39.8 µM [inhibitor, partial curve, poor fit] | – |
| O=C(N=Nc1c(O)[nH]c2c(Cl)cc(Cl)cc12)c1ccccc1O | inconclusive: 50.1 µM [inhibitor, partial curve, poor fit] | – |
| COc1ccc(OC)c(NC(=O)Cn2c(=O)cc(C)c3c(C)nn(-c4cccc(Cl)c4C)c32)c1 | inconclusive: 79.4 µM [inhibitor, partial curve, poor fit] | – |
| O=C(O)c1ccccc1-c1ccccc1C(=O)Nc1ccc2oc(=O)c3ccccc3c2c1 | – | inactive: -7.94% |
| Nc1nc(-c2ccc(Cl)cc2)cs1 | inconclusive: 79.4 µM [inhibitor, single point] | – |
| COc1ccc2nc(Nc3sc4c(c3C(N)=O)CCCC4)sc2c1 | active: 22.4 µM | – |
| Cc1noc(-c2cn(C3CCCN(C(=O)c4cccc(C(F)(F)F)c4)C3)nn2)n1 (centres undefined) | – | inactive: 1.32% |
| O=C(CSc1ccccc1F)c1ccc2c(c1)-c1ccccc1C2 | inconclusive: 31.6 µM [inhibitor, partial curve, poor fit] | – |
| Cc1ccc(CNC(=O)C2Cn3cccc3C(=O)N2C)o1 (centres undefined) | – | inactive: 10.1% |
| CCOC(=O)C1(Cc2ccc(OC)cc2)CCN(S(C)(=O)=O)CC1 | inconclusive: 126 µM [inhibitor, single point] | – |

| SMILES | Potency | activity change, negative = inhibition |
| --- | --- | --- |
| CC(C)C1C/C(=N/NC(N)=S)C=C2CCCCC21 (centres undefined) | inconclusive: 39.8 µM [inhibitor, partial curve, poor fit] | – |
| CCOc1ccc(NC(=O)CN2CCN(CC(=O)Nc3ccc(F)cc3F)CC2)cc1 | – | inactive: -28.8% |
| FC(F)(F)c1cccc(NC(=S)NNC(=S)NCc2ccccc2)c1 | inconclusive: 2.82 µM [inhibitor, full curve, poor fit] | – |
| Cc1cc(C)c2nc(N3CCC(C(=O)NCc4ccccc4C)CC3)sc2c1 | inconclusive: 0.794 µM [inhibitor, full curve, poor fit] | – |
| Cc1cc(NC(=O)c2ccc3nc(-c4ccccc4)c(-c4ccccc4)nc3c2)no1 | – | inactive: -3.62% |
| COCCn1c(C)c(C)c(S(=O)(=O)c2ccccc2)c1N | inconclusive: 35.5 µM [inhibitor, single point] | – |
| CC(C)C(OC(=O)c1cc2occc2n1C)C(=O)NCc1ccc2c(c1)OCO2 (centres undefined) | inconclusive: 3.16 µM [inhibitor, full curve, poor fit] | – |
| COC(=O)c1cccc(-n2c(C)cc(/C=C3\SC(=O)NC3=O)c2C)c1 | inconclusive: 35.5 µM [inhibitor, partial curve, poor fit] | – |
| Cc1cccc(-n2cc(-c3ccccc3)c3c(=O)[nH]cnc32)c1 | inconclusive: 56.2 µM [inhibitor, partial curve, poor fit] | – |
| CCCCC[C@H]1CCCCC[C@@H](O)C[C@@H](O)[C@@H](O)/C=C/C(=O)O1 | – | inactive: -26.4% |
| CCC(CC)c1nnc(NC(=O)CS(=O)(=O)c2ccccc2)s1 | inconclusive: 22.4 µM [inhibitor, partial curve] | – |
| CCN1C(=O)N(C)[C@@H](c2ccccc2)C(C(=O)OC)=C1C | inconclusive: 141 µM [inhibitor, single point] | – |
| O=C(O)c1cccc(N2C(=O)/C(=C/c3ccc([N+](=O)[O-])cc3)C=C2c2ccccc2)c1 | active: 35.5 µM | – |
| CC1(C)OC(=O)C(=NNc2ccc(O)cc2)C(=O)O1 | inconclusive: 79.4 µM [inhibitor, partial curve, poor fit] | – |
| C=CCNC(=S)Nc1sc2c(c1C(N)=O)CCCC2 | inconclusive: 112 µM [inhibitor, single point] | – |
| COc1ccc(Nc2c(-c3ccc(C)o3)nc3cc(C)ccn23)cc1 | inconclusive: 63.1 µM [inhibitor, partial curve, poor fit] | – |
| COc1ccc(-c2nc(CSCC(=O)N3c4ccccc4CC3C)co2)cc1 (centres undefined) | – | inactive: -16.6% |
| Cc1ccc2oc(-c3ccc(C)c(NC(=O)/C=C/c4ccc(Cl)cc4)c3)nc2c1 | – | inactive: -4.8% |
| O=C(Nc1cccc(C(F)(F)F)c1)Nc1ccc2[nH]c(=O)[nH]c2c1 | – | inactive: -10.2% |
| CC(C)N1C(=O)c2ccccc2C1C(=O)NCCc1ccccc1 (centres undefined) | – | inactive: 19.2% |

Part of the list above, with tabs.
SMILES	Potency	activity change, negative = inhibition
Cc1cccc(NC(=S)NC(NC(=O)c2ccco2)C(Cl)(Cl)Cl)c1 (centres undefined)	inconclusive: 25.1 µM [inhibitor, single point]	–
Cc1ccc(CNC(=O)C2CCCN(c3ncnc4onc(-c5ccc(F)cc5)c34)C2)cc1 (centres undefined)	inconclusive: 100 µM [inhibitor, single point]	–
